These are yes or no findings as the source states them, for the method shown. Some binding calls cover weakened binding; strength is not graded here.

This is an account of results in patent publication US20230192899A1.

Test [1] deals with T1, mouse CD47 protein (ELISA coat) (mouse) (UniProt Q61735).
T1 sequence (looked up): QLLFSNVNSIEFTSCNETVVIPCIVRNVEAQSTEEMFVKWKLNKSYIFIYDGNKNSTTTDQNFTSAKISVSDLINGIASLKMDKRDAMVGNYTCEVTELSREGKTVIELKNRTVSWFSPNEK
The experiment in a line: direct ELISA (FIG. 14). In general terms: In an ELISA, binding on a coated surface is turned into a signal by an enzyme label.

For test [2], the target named is T2, mouse membrane-presented CD47 on Tg32 mouse erythrocytes (mouse) (UniProt Q61735).
T2 sequence (looked up): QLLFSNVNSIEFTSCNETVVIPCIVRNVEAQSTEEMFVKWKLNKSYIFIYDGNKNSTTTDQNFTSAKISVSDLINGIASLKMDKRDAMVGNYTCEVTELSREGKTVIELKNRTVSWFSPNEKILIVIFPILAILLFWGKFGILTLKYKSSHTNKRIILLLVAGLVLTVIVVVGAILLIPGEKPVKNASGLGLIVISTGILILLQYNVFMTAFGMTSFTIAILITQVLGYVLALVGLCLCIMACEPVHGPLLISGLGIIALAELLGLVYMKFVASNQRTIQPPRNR
Briefly: flow cytometry on Tg32 mouse erythrocytes (FIG. 21); no signal at 0.1 µg/ml. In general terms: Flow cytometry measures light scatter and fluorescence of single cells or particles in a stream.

B1: A-D5 anti-CD47 IgG1 (antibody, V domains shown)
VH: QVQLVQSGAEVKKPGESLKISCKGSGYTFTNYYIFWVRQMPGKGLEWMGIINPVDGDTNYNPSFQGQVTISADKSISTAYLQWSSLKASDTAMYYCARGGYTMDRWGQGTLVTVSS
VL: DIVMTQSPLSLPVTPGEPASISCRSSQSLLHSNGYNYLHWYLQKPGQSPQLLIYKVSNRLSGVPDRFSGSGSGTDFTLKISRVEAEDVGVYYCFQNTHTPRTFGGGTKVEIK
For the molecule B1, the binding entry in test [1] and in test [2] was “binds” in each case.
